Test results from patent publication US20260234260A1.
These are yes or no findings as the source states them, for the method shown. Binding calls can cover weak binding; strength is not graded here.

Biological target: neonatal Fc receptor (FcRn)
Assay: SPR (Biacore), antibody captured, FcRn as analyte

binding: binds
B1: PD1-C40-6A7-FV3A (bispecific antibody, human IgG4 S228P, kappa)
heavy: EVQLVESGGGLVQPGGSLRLSCAASGFTFSSYSMSWVRQAPGKRLEWVAHISSGGSSTYYPDTVKGRFTISRDNSKNTLYLQMNSLRAEDTAMYYCTRQFYYGSSFWYFDVWGAGTTVTVSSASTKGPSVFPLAPCSRSTSESTAALGCLVKDYFPEPVTVSWNSGALTSGVHTFPAVLQSSGLYSLSSVVTVPSSSLGTKTYTCNVDHKPSNTKVDKRVESKYGPPCPPCPAPEFLGGPSVFLFPPKPKDTLMISRTPEVTCVVVDVSQEDPEVQFNWYVDGVEVHNAKTKPREEQFNSTYRVVSVLTVLHQDWLNGKEYKCKVSNKGLPSSIEKTISKAKGQPREPQVYTLPPSQEEGGGGSGGGGSDVVMTQSPLSLPVTLGQPASISCRSSQSLLHSNGNTYLHWYQQRPGQSPNHLIYQVSNRFSGVPDRFSGSGSGTDFTLKISRVEAEDVGVYFCSQTTHVPWTFGCGTKVEIKGGGGSGGGGSGGGGSGGGGSQVQLVQSGAEVKKPGASVKLSCKASGYTFISYYIYWVKQAPGQCLEWIGGINPRNGGTNFNEKFKSRATLTVDTSISTAYMELSRLRSEDTAVYYCTRHGNGVYWGQGTTLTVSSGGGGSGGGGSVSLTCLVKGFYPSDIAVEWESNGQPENNYKTTPPVLDSDGSFFLYSRLTVDKSRWQEGNVFSCSVMHEALHNHYTQKSLSLSPGK
light: DNVLTQSPATLSVSPGERATLSCKASQSVDFDGDSYMNWYQQKPGQPPRLLIYAASNLESGIPARFSGSGSGTDFTLTISSVEPEDFATYYCQQSNEDPPTFGGGTKVEIKRTVAAPSVFIFPPSDEQLKSGTASVVCLLNNFYPREAKVQWKVDNALQSGNSQESVTEQDSKDSTYSLSSTLTLSKADYEKHKVYACEVTHQGLSSPVTKSFNRGEC
